The conditions of data set [1]: PAMPA. (PAMPA measures passive passage across an artificial lipid membrane.)
The nature of a further data set: in vitro. To be noted: pig, PAMPA, pH 7.4.

What is called Papp is a coefficient for how fast a substance crosses the barrier. Lower therefore signals poor permeation.

`COc1cc2c(cc1OC)C(=O)C(CC1CCN(Cc3ccccc3)CC1)C2` (centres unmarked) [donepezil, reference compound]: the “prediction of CNS permeation” value in data set [1] is recorded as “CNS+”. Moreover, the Papp in the data set “in vitro” stood at 13.3 ± 1.82 ×10⁻⁶ cm/s.

The record behind these values is paper PMC10061512 (ACS Omega, 2023).
